Drawing on paper PMC3630105, this text covers binding for five molecules.

Chains of the proteins cited; added tags and fusions are not shown. Lines headed by an entry give the natural chain unless they say otherwise; changes in a name come on top.
UniProt Q9VAJ1: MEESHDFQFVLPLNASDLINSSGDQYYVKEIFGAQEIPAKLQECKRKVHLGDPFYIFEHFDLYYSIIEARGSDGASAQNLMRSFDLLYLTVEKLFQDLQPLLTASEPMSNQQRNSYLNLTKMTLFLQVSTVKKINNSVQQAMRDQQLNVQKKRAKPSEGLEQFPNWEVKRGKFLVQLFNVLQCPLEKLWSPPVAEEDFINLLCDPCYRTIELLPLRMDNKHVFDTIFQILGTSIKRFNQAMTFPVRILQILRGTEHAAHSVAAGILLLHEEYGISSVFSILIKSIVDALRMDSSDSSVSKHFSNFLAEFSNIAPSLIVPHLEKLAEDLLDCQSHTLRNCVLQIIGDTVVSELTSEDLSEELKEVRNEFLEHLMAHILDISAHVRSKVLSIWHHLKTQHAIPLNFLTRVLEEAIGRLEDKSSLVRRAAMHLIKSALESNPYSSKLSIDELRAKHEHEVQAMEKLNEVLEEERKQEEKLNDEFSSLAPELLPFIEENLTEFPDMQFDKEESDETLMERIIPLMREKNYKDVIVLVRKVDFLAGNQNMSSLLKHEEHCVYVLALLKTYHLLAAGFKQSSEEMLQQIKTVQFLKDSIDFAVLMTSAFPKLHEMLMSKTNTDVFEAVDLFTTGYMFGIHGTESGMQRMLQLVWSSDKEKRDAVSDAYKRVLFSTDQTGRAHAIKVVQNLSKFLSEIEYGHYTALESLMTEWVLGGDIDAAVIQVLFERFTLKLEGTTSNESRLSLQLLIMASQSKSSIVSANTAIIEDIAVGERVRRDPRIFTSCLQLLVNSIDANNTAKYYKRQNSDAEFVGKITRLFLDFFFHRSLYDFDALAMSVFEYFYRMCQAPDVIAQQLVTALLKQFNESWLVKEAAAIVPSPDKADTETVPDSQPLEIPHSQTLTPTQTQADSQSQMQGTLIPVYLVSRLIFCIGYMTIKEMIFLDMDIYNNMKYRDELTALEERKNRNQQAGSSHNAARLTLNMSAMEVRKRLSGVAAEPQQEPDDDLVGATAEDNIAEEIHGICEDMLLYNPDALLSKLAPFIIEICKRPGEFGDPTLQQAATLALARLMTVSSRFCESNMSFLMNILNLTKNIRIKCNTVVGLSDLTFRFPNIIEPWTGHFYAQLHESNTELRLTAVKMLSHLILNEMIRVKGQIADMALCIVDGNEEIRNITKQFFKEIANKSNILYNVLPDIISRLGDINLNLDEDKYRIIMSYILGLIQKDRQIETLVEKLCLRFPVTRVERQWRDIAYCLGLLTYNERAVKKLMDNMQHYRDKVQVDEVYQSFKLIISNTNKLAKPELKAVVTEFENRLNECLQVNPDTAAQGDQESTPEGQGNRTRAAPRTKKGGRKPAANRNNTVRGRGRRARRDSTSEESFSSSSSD

These are yes or no findings as the source states them, for the method shown. In cells and extracts the contact can be indirect. For part of these data: A result given as binding can be weak or reduced; the word gives no strength. For part of these data: Where a sequence is shown, tags or fusion partners need not be part of it.

One assay addresses T1, hSecurin-HFHF (human) (UniProt O95997).
T1 sequence: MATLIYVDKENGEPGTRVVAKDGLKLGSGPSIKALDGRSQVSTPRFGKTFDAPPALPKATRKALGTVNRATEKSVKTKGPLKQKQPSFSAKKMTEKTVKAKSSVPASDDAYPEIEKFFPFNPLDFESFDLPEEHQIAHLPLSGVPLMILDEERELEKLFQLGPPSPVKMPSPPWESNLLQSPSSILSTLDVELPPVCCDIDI
Nature of the assay: co-IP; proteins co-translated in vitro with [35S]methionine (reticulocyte lysate); anti-Flag agarose, 3 h at 4°C; autoradiography.

The target in assay [1] is T2, Barren-HFHF (Drosophila melanogaster) (UniProt P91663).
T2 sequence: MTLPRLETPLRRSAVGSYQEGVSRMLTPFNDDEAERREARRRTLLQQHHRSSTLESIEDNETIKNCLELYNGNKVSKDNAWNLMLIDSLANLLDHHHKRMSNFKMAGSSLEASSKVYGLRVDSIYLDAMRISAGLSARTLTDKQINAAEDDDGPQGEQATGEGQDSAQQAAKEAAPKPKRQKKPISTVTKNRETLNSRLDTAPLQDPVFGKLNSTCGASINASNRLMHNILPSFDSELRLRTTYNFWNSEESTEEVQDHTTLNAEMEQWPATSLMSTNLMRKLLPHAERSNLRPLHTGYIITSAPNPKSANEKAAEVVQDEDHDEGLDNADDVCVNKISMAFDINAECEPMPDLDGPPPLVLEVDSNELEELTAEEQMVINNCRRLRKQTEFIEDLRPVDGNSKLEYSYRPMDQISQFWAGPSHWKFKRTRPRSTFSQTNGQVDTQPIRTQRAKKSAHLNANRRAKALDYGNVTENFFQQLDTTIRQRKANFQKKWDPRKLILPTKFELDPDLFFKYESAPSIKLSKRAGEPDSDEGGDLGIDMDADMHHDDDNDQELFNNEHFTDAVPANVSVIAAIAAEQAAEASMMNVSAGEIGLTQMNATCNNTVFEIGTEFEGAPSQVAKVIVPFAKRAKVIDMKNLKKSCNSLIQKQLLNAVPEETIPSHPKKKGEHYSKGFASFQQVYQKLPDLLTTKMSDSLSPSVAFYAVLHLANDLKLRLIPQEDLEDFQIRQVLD
The description is as above.

Assay [2] has as its target T2, Barren-HFHF (Drosophila melanogaster). As to the kind of experiment: co-IP; proteins translated in vitro in separate reactions with or without [35S]methionine, mixed; anti-Flag agarose, 3 h at 4°C; autoradiography and anti-Flag immunoblot.
The target in assay [3] is Cap-G^FL-EGFP (Drosophila melanogaster). As to the kind of experiment: co-IP; extracts of embryos expressing EGFP-fused Cap-G fragments; rabbit anti-EGFP antibodies cross-linked to Protein A-Sepharose; 4°C; lysis buffer 50 mM HEPES pH 7.5, 60 mM NaCl, 0.2% Triton X-100, 0.2% NP-40; elution in two steps; silver staining and immunoblot (Cap-D2, Cap-H/Barren). (In western blotting, separated proteins are transferred to a membrane and probed.)

Assay [4] deals with myc-Cap-D2 (Drosophila melanogaster) (UniProt Q9VAJ1). As to the kind of experiment: co-IP; proteins translated in vitro in separate reactions with or without [35S]methionine, mixed (two or three proteins); anti-myc antibody beads, 3 h at 4°C; autoradiography and anti-myc immunoblot.

As to “Cap-D2 (in vitro translated) (from UniProt Q9VAJ1)”, the binding entry with hSecurin-HFHF (human) is “no binding”; in assay [1], “binds”.

Turning to “Cap-G (in vitro translated) (Drosophila melanogaster)”, the binding result is recorded as “no binding” with hSecurin-HFHF (human), “binds” in assay [1] and “binds” in assay [2].

In the case of “SMC4 (in vitro translated) (Drosophila melanogaster)”, the values for the binding result (with hSecurin-HFHF (human); in assay [1]) were “no binding” and “binds”, respectively.

B1: Cap-H/Barren (endogenous) (protein, UniProt P91663 1-736)
chain: T2 sequence
In the case of B1, the binding entry in assay [3] is recorded as “binds”.

B2: Cap-H/Barren (in vitro translated, no epitope tag) (protein, UniProt P91663 1-736)
chain: T2 sequence
For B2, the binding result in assay [4] is reported as “binds”.
